This passage reports AC50 results from PubChem BioAssay AID1487 (National Center for Advancing Translational Sciences (NCATS), 2009).

This test can be described thus: qHTS Assay for Modulators of Lamin A Splicing. The settings on record: HeLa LMNA splicing GFP/RFP minigene ratio, 48 h. Put shortly: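 S3 HeLa cells stably expressing lamin A-EGFP splicing minigene plus DsRed2, 600 cells/well, 48 h compound exposure at 37C. Laser-scanning cytometry; analysed as GFP (500-530 nm)/RFP (575-640 nm) total intensity ratio; 0.5% DMSO vehicle.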
On the technique in general: In qHTS, concentration-response curves come from the screen itself.

Setting [1] is: measured here: GFP splicing reporter channel.
Setting [2] is: measured here: RFP viability control channel.

The structures appear in SMILES notation. Several values for one entry are separate records, joined by “and”; a condition that tells them apart may be missing. Equal values may be shown once. The list shows a part of the results. Shown are side measurements of this screen, not its main read-out; they come without a call. The list favours compounds with an active or inconclusive main result. Words in brackets tell the shape of the fitted curve; partial curves, single points and poor fits give uncertain potencies.

By AC50 is commonly meant the concentration giving half of the maximal activity seen. With `O=C(CS(=O)(=O)c1cccc2nsnc12)N1CCN(c2ccc(F)cc2)CC1`, the AC50 under setting [1] is 0.112 µM [rising, full curve, poor fit] and the half-maximal activity concentration (AC50) under setting [2] is 0.398 µM [rising, full curve, poor fit].

On to `CCCCN(CC)CCCNC(=O)c1ccc2c(c1)N(Cc1ccc(C)cc1)C(=O)c1ccccc1S2`, for which the AC50 is 14.1 µM [falling, single point] under setting [1] and 22.4 µM [falling, single point] under setting [2].

Consider `COc1ccc(S(=O)(=O)N2CCN(CCC(=O)Nc3ccc(F)cc3)CC2)cc1`, for which the AC50 under setting [1] was 11.2 µM [rising, partial curve] and the AC50 under setting [2] was 22.4 µM [rising, partial curve].

Consider `CNC(=S)N1N=C(c2ccccc2)CC1c1ccc(Br)cc1` (stereo not drawn), for which the AC50 under setting [1] was 22.4 µM [rising, single point] and the AC50 under setting [2] is 35.5 µM [rising, single point].

Take `CCOc1ccc(CCNC(=O)c2cc3n(n2)CCCN(Cc2ccc(C)cc2)C3=O)cc1OCC`: under setting [2], the concentration at half-maximal activity (AC50) was 15.8 µM [rising, partial curve, poor fit].

As for `C/C(=N\NC(=O)CNc1cccc(Cl)c1C)c1cccs1`, under setting [2], the AC50 was 15.8 µM [falling, single point].

As to `COc1ccc(CN(Cc2ccccn2)S(=O)(=O)c2ccc(-n3cnnn3)c(OC)c2)cc1`, under setting [2], the AC50 is 20 µM [rising, single point].

Consider `Cc1ccc(-c2cc(C(=O)N3N=C(C(F)F)CC3(O)C(F)F)c3ccccc3n2)cc1C` (stereo not drawn), for which the AC50 under setting [1] was 4.47 µM [rising, partial curve] and the AC50 under setting [2] was 14.1 µM [rising, partial curve].

On to `CO/N=C(\C(=O)N[C@@H]1C(=O)N2C(C(=O)O)=C(CSc3nc(=O)c(O)nn3C)CSC12)c1csc(N)n1` (stereo partly drawn), for which, under setting [1], the AC50 was 0.00316 µM [rising, full curve, poor fit].

As to `CCCNS(=O)(=O)c1ccc(NC(=O)c2ccccn2)cc1`, the AC50 is, setting by setting: under setting [1], 31.6 µM [rising, single point]; under setting [2], 35.5 µM [rising, single point].

In the case of `O=C(O)CSc1nnc2c(n1)[nH]c1ccccc12`, the AC50 by setting is: under setting [1], 11.2 µM [falling, partial curve]; under setting [2], 11.2 µM [falling, partial curve].

Turning to `CCOC(=O)C(C(=O)OCC)C(C)(C)/C(C)=N\Nc1ccc([N+](=O)[O-])cc1[N+](=O)[O-]`, the AC50 under setting [2] was 14.1 µM [rising, partial curve].

Take `CCN(CC(=O)Nc1ccc(N2CCOCC2)cc1)C(=O)c1ccc(C#N)cc1`: the AC50 under setting [2] is 0.501 µM [falling, full curve, poor fit].

In the case of `Cc1ccc(N/C=C(/C#N)c2ccsc2)cc1`, the AC50 was 10 µM [rising, partial curve, poor fit] under setting [1] and 12.6 µM [rising, single point] under setting [2].

As for `CCc1cccc(NC(=O)Cn2c(=O)n(CC3CCC(C(=O)NC)CC3)c(=O)c3sccc32)c1` (stereo not drawn), the AC50 under setting [1] is 2 µM [falling, partial curve, poor fit].

For the molecule `O=C(CSc1nnnn1-c1ccc(F)cc1)c1ccc(O)c(O)c1`, the AC50 is, setting by setting: under setting [1], 7.08 µM [falling, partial curve]; under setting [2], 2.82 µM [falling, full curve, poor fit].

As to `CCc1ccc2oc(C(=O)NCc3ccncc3)c(C)c2c1`, the AC50 under setting [2] was 35.5 µM [rising, single point].

With `O=C(c1ccccc1)c1nn(-c2ccccc2)c(=O)cc1C(F)(F)F`, the AC50 under setting [2] is 12.6 µM [falling, partial curve].

For `CC12CCC(C(=O)n3c1nc1ccccc13)C2(C)C` (stereo not drawn), the AC50 under setting [2] is 15.8 µM [rising, partial curve].

Consider `CSc1ccc(Cc2ccc(Cl)cc2Cl)nn1`, for which the concentration at half-maximal activity (AC50) under setting [2] was 17.8 µM [rising, single point].

Take `CCCSC1=NC2(CCN(C(=O)NC3CCCCC3)CC2)N=C1c1ccc(OC)cc1`: the AC50 under setting [2] is 35.5 µM [rising, single point].

In the case of `CC1(C)CC(=O)C(C=NCC2CCN(C(=O)Cc3ccccc3)CC2)=C(O)C1`, under setting [2], the AC50 is 0.00316 µM [falling, full curve, poor fit].

`COc1ccc(-c2noc(C3CCCN(C(=O)Nc4ccccc4)C3)n2)cc1` (stereo not drawn): the concentration at half-maximal activity (AC50) under setting [1] is 0.631 µM [rising, full curve, poor fit].

Regarding `C=CCc1ccc(OCCOc2cccc3cccnc23)c(OC)c1`, the AC50 reads like this: under setting [1], 2.82 µM [rising, partial curve, poor fit]; under setting [2], 31.6 µM [rising, single point].

With `O=C(O)c1ccc(CS(=O)c2cccc(C(F)(F)F)c2)o1` (stereo not drawn), the AC50 under setting [2] was 2.82 µM [rising, full curve].

`Cc1nc(-c2cccc(F)c2)sc1CCNC(=O)Cc1ccc(F)cc1`: the AC50 under setting [2] is 3.16 µM [falling, partial curve, poor fit].

Take `COc1ccc(C(=O)Nn2cc3c(c2-c2ccccc2)c(=O)n(C)c(=O)n3C)cc1`: the AC50 under setting [2] is 11.2 µM [falling, partial curve].

On to `C=CCc1cc(Cl)ccc1OCCCNCCO`, for which the AC50 under setting [2] was 2 µM [falling, full curve].

Regarding `Cc1ccc(S(=O)(=O)Nc2ccccc2CNc2ccccn2)cc1`, under setting [2], the AC50 is 22.4 µM [rising, partial curve, poor fit].

With `CC1CCN(CCCNC(=O)CN2C(=O)CSc3ccc(S(=O)(=O)N4CCCCC4)cc32)CC1`, the AC50 under setting [2] was 0.158 µM [falling, full curve, poor fit].

On to `O=C1C2C3CCC(C3)C2C(=O)N1CNc1ccccc1` (stereo not drawn), for which the AC50 is, setting by setting: under setting [1], 35.5 µM [falling, single point]; under setting [2], 31.6 µM [falling, single point].

On to `CCN1CCCC1CNC(=O)c1cc2c(-c3ccc(Cl)cc3)nn(C)c2s1` (stereo not drawn), for which the AC50 is, setting by setting: under setting [1], 35.5 µM [rising, single point]; under setting [2], 35.5 µM [rising, single point].

Turning to `CC1=NN(c2nc(-c3ccc(C)cc3)cs2)C(=O)C1N=Nc1ccc(C(N)=O)cc1` (stereo not drawn), the AC50 under setting [1] is 6.31 µM [falling, single point] and the AC50 under setting [2] was 3.55 µM [falling, partial curve].

Take `O=C(c1cccs1)N1CCCc2cc(NS(=O)(=O)c3ccc(Br)cc3)ccc21`: the AC50 under setting [2] is 12.6 µM [rising, partial curve, poor fit].

Regarding `CN1CCN(C(=S)c2cn(Cc3ccccc3)c3ccccc23)CC1`, the AC50 under setting [2] is 28.2 µM [rising, single point].

`O=C(CN1c2cccc3cccc(c23)S1(=O)=O)Nc1cccc(S(=O)(=O)N2CCOCC2)c1`: the concentration at half-maximal activity (AC50) under setting [2] was 11.2 µM [rising, single point].

As for `CN(C)/C=C1/C(=O)N(c2ccc([N+](=O)[O-])cc2)N=C1c1ccccc1`, under setting [2], the AC50 is 14.1 µM [rising, partial curve].

For the molecule `O=C1Nc2cc(C(=O)N3CCc4ccccc4C3)ccc2S/C1=C\c1ccccc1`, the AC50 under setting [2] is 22.4 µM [rising, single point].

In the case of `CCc1ccc(NCc2cc3cc4c(cc3n(CC(=O)Nc3ccc(OC)cc3)c2=O)OCO4)cc1`, the AC50 under setting [2] is 0.794 µM [falling, full curve, poor fit].

As to `CCn1c(SCC(=O)N(C)C2CCS(=O)(=O)C2)nnc1-c1cccs1` (stereo not drawn), under setting [1], the half-maximal activity concentration (AC50) was 5.62 µM [rising, single point].

Consider `Cc1nn(-c2ccccc2)c(Oc2ccccc2)c1C=O`, for which the AC50 under setting [1] is 35.5 µM [rising, single point] and the AC50 under setting [2] was 35.5 µM [rising, single point].

Regarding `Cn1c(SCC(=O)N2CCOCC2)ncc(C(=O)Nc2ccc(F)cc2)c1=O`, the AC50 under setting [2] is 14.1 µM [rising, single point].

As for `COc1c(S(=O)(=O)N2CCN(c3ccc(F)cc3)CC2)ccc(Cl)c1Cl`, under setting [2], the concentration at half-maximal activity (AC50) is 31.6 µM [rising, single point].

`C/C(=C\c1ccccc1)C(=O)N1CCN(c2cccc(C(F)(F)F)c2)CC1`: the AC50 under setting [2] is 35.5 µM [rising, single point].

On to `CC(=O)c1ccc(NC(=O)C(C)OC(=O)c2ccc3c(c2)nc(C)n3-c2ccccc2)cc1` (stereo not drawn), for which the AC50 under setting [1] was 17.8 µM [rising, single point].

In the case of `Cc1nc([N+](=O)[O-])c(Br)n1CC(=O)c1ccc(F)cc1`, under setting [2], the AC50 was 35.5 µM [falling, single point].

For the molecule `CNc1nc(SC)nc(N(C)C#N)n1`, under setting [2], the AC50 is 0.398 µM [falling, full curve, poor fit].

As to `Cn1c(=O)c2c(ncn2CCO)n(C)c1=O`, the AC50 runs as follows: under setting [1], 0.794 nM [falling, full curve, poor fit] and 2.24 µM [rising, full curve]; under setting [2], 3.16 µM [falling, single point] and 2.24 µM [falling, single point].

On to `Cc1cccc(-c2nnn(C/C(N)=N/O)n2)c1`, for which the AC50 is 7.94 µM [falling, partial curve] under setting [1] and 5.01 µM [falling, partial curve] under setting [2].

With `CCCCOc1ccc(CC(=O)NCC(=O)O)cc1`, the AC50 by setting is: under setting [1], 0.501 µM [rising, full curve, poor fit]; under setting [2], 0.891 µM [rising, partial curve].

With `COc1ccc(CCNC[C@@H](O)c2ccc(O)cc2)cc1OC`, the AC50 is, setting by setting: under setting [1], 0.891 µM [falling, full curve, poor fit]; under setting [2], 1.12 µM [falling, full curve, poor fit].

For `Fc1ccc(-c2csc(N3CCC(c4ccccc4)C3)n2)cc1` (stereo not drawn), under setting [1], the AC50 is 35.5 µM [falling, single point].

Regarding `CCOC(=O)C1(CCOC)CCN(C(C)CCc2ccc(OC)cc2)CC1` (stereo not drawn), the AC50 under setting [2] is 2.51 µM [falling, full curve].

Take `N#CCSc1nn(-c2ccc(F)cc2)c(=S)s1`: the AC50 under setting [2] was 0.0708 µM [falling, full curve, poor fit].

Turning to `Cc1cccc(N(C)S(=O)(=O)c2nnc(NC(=O)C(C)(C)C)s2)c1`, the AC50 under setting [2] is 2.82 µM [rising, full curve, poor fit].
